PubChem BioAssay AID1347076 (National Center for Advancing Translational Sciences (NCATS), 2019)
Where “and” joins values, the source holds several entries; their conditions need not be identical. Equal values may be shown once. Screen size: about 400,000 compounds; about 13,000 (3.2%) were called active. Inconclusive means that the source gave no clear call. Such entries were picked first, then a sample of the others. Calls follow the shape of the dose curve; as a rule, active = well fitted cell-killing curve with a large enough effect; inconclusive = small, poorly fitted or top-dose-only effect, or effect the other way; inactive = flat fitted curve, though single readings scatter. Potencies of inconclusive entries are doubtful fits and often do not repeat. More than one record can exist for a structure, and the calls need not agree.

experiment: qHTS assay for MDR1-selective chemotherapeutics: Primary screen using the drug-selected MDR subline cells KB-V1; settings: KB-V1 MDR cells viability, CellTiter-Glo, 72 h; activity change, negative = cytotoxicity: at 46.1 µM (top of the series); also: nearly all actives have a fitted effect of over 60% in size
Summary of the method: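 Potencies derive from concentration-effect curves fitted to normalized luminescence (CellTiter-Glo) of KB-V1 cells treated for 72 h at 37 degrees C in phenol-red-free DMEM containing 10% FBS.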
% is scaled to controls: 0 for no effect and ±100 for the full control effect; potency is read from the fitted curve at half-maximal effect.

SMILES | Potency | activity change, negative = cytotoxicity
O=C(O)CN1C(=O)C(=O)N(Cc2ccc(C(F)(F)F)cc2)C1=O | inconclusive: 20.6 µM [rising, single point] | –
O=C(CSCC(=O)Nc1ccccc1)N/N=C/c1c(O)ccc2ccccc12 | inconclusive: 3.98 µM [cytotoxic, full curve, poor fit] | –
CCCC(=O)Nc1nc2ccc(S(=O)(=O)N3CCCCC3)cc2s1 | inconclusive: 29.1 µM [cytotoxic, partial curve, poor fit] | –
CC(C)(C)OC(=O)N1CCC(CNC(=O)c2ccc(F)cc2F)CC1 | inconclusive: 13 µM [cytotoxic, single point] | –
Cc1ccc(CN2C(=O)C[C@@H](NC(=O)OCC3c4ccccc4-c4ccccc43)C/C=C\C2c2ccc(C)cc2)cc1 (some centres undefined) | inactive | –
Cc1csc(NC(=O)CSCC(=O)O)c1-c1nc2ccccc2s1 | inactive | –
CC(C)c1ccc(/C=N/NC(=O)c2cccc(Cl)c2)cc1 | active: 8.2 µM | –
COc1cccc(CC2(CO)CCCN(Cc3ccccc3Cl)C2)c1 (centres undefined) | inconclusive: 23.1 µM [rising, single point] | –
CC(C)(O)c1[nH]c2cc(F)ccc2c1C(C)(C)O | inconclusive: 18.4 µM [rising, single point] | –
Clc1cccc(Cl)c1CSc1nnc(-c2ccncc2)s1 | inconclusive: 8.2 µM [cytotoxic, partial curve, poor fit] | –
CCS(=O)(=O)Nc1cccc(-c2cc(-c3ccccc3)c3cc(C)ccc3n2)c1 | inconclusive: 23.1 µM [cytotoxic, single point] | –
O=C(NCC(=O)N1CCN(C/C=C/c2ccccc2)CC1)c1ccc(Br)cc1 | inconclusive: 29.1 µM [cytotoxic, single point] | –
Oc1c(I)cc(I)c2cccnc12 | inconclusive: 9.2 µM [cytotoxic, partial curve, poor fit] | –
Cc1ccc(-c2nnn(CC(=O)N(c3ccc(F)cc3)C(C(=O)NC3CCCC3)c3ccco3)n2)o1 (centres undefined) | inconclusive: 29.1 µM [cytotoxic, single point] | –
CC1CCN(c2nc3c(S(=O)(=O)c4ccccc4)nnn3c3ccsc23)CC1 | inactive | –
CCN1C(=O)[C@@H]2[C@@H]3CN(S(=O)(=O)c4ccccc4C)[C@@H](c4ccc(Cl)cc4)[C@@H]3C(=O)C[C@@H]2C1=O | inactive | –
O=C(NCc1nnc2c(C(F)(F)F)cc(Cl)cn12)c1ccc2c(c1)OCO2 | inconclusive: 3.66 µM [cytotoxic, partial curve, poor fit] | –
Cc1ccc(O)c(NC(=S)NC(=O)/C=C/c2ccccc2)c1 | inconclusive: 29.1 µM [rising, single point] | –
NNc1nc(-c2ccccc2Cl)nc2ccccc12 | inactive | –
Cc1n[nH]c(=O)nc1NCCN(C)C | inconclusive: 20.6 µM [rising, partial curve, poor fit] | –
COc1ccccc1NC(=O)CCCOc1cc(=O)n(C)c2ccccc12 | inconclusive: 14.6 µM [cytotoxic, partial curve] | –
COC(=O)c1ccc(OCC(O)Cn2nnc3ccccc32)cc1 (centres undefined) | active: 23.1 µM | –
CC1CCC(=O)N(CCSc2ccccc2)CC1 (centres undefined) | inconclusive: 16.4 µM [cytotoxic, partial curve] | –

Sorted by length of the SMILES (low to high): 3 of the compounds above.
SMILES | Potency | activity change, negative = cytotoxicity
Oc1c(I)cc(I)c2cccnc12 | inconclusive: 9.2 µM [cytotoxic, partial curve, poor fit] | –
COc1cccc(CC2(CO)CCCN(Cc3ccccc3Cl)C2)c1 (centres undefined) | inconclusive: 23.1 µM [rising, single point] | –
COc1ccccc1NC(=O)CCCOc1cc(=O)n(C)c2ccccc12 | inconclusive: 14.6 µM [cytotoxic, partial curve] | –

Following part

SMILES | Potency | activity change, negative = cytotoxicity
CCN1CCN(CCCN(Cc2ccco2)C(=S)Nc2cc(Cl)ccc2C)CC1 | inconclusive: 20.6 µM [cytotoxic, single point] | –
O=c1[nH]c(=O)n(Cc2ccccc2)c2c1C(C(F)(F)F)(C(F)(F)F)N=C(c1ccco1)N2 | inconclusive: 29.1 µM [cytotoxic, single point] | –
CCc1nnc(NC(=O)CN2CCN(c3nc(-c4ccccc4)cs3)CC2)s1 | active: 20.6 µM | –
Cc1cc(C)c(CN2CCC(n3nccc3NC(=O)c3ccccc3Cl)CC2)cc1C | inconclusive: 1.64 µM [cytotoxic, partial curve] | –
COc1ccccc1N(CC(=O)N/N=C(\C)c1cccc(Br)c1)S(C)(=O)=O | active: 20.6 µM | –
COc1cccc(C(=O)N2CCN(Cc3ccc4c(c3)OCO4)CC2)c1OC | inconclusive: 23.1 µM [cytotoxic, single point] | –
O=C(CSc1nc(=O)n2ccccc2n1)NCc1ccccc1Cl | inconclusive: 8.2 µM [rising, partial curve, poor fit] | –
COc1ccc(C2(O)CN(c3ccccc3)C3=[N+]2CCS3)cc1OC (centres undefined) | inconclusive: 5.8 µM [cytotoxic, full curve] | –
COc1ccc(-c2nc(C)c(CCNC(=O)C(=O)Nc3cccc(F)c3)s2)cc1OC | inconclusive: 3.66 µM [cytotoxic, partial curve] | –
O=C(c1ccc(Cl)c(S(=O)(=O)N2CCCCCC2)c1)N1CCCC(C(F)(F)F)C1 (centres undefined) | inconclusive: 9.2 µM [cytotoxic, partial curve] | –
CCCc1nnc(NC(=O)Cn2c(=O)sc3ccccc32)s1 | active: 18.4 µM | –
Cc1cc(-c2ccccc2)n(-c2ccc(C(=O)N3CCN(c4ncccn4)CC3)cc2)n1 | active: 2.91 µM | –
CSc1ccc(CN2CCC(n3nccc3NC(=O)CCCc3ccccc3)CC2)cc1 | inconclusive: 2.91 µM [cytotoxic, full curve] | –
COc1cccc(/C=c2\s/c(=C\C(=O)C(C)(C)C)[nH]c2=O)c1 | active: 14.6 µM | –
O=C(CCn1c2c(c3ccccc31)CCCC2)NNC(=O)c1ccccc1[N+](=O)[O-] | inactive | –
COc1ccc(OC)c(S(=O)(=O)NCCC2=CCCCC2)c1 | inconclusive: 25.9 µM [cytotoxic, partial curve, poor fit] | –
Cc1cc2c(cc1C)N[C@]1(C[C@H]3CCCC(=O)N4CC[C@@H](C1)[C@@H]34)C(=NC(C)(C)CC(C)(C)C)N2 | active: 20.6 µM and inconclusive: 29.1 µM [cytotoxic, single point] | –
CCOc1ccc(/C=C/C2=CC(C)(C)NC(=S)N2)cc1 | inconclusive: 29.1 µM [cytotoxic, single point] | –
CC(C)(C)c1ccc(C(=O)Nc2cccc(S(=O)(=O)NC3=NCCC3)c2)cc1 | inactive | –
O=C(COC(=O)CNS(=O)(=O)c1ccc(F)c(F)c1F)NC1CC1 | inconclusive: 18.4 µM [rising, single point] | –
COC(=O)N(C)C[C@H]1OCc2cnnn2CCCC(=O)N([C@H](C)CO)C[C@H]1C | inactive | –
O=C(NCC(O)c1ccc([N+](=O)[O-])cc1)C1=COCCO1 (centres undefined) | inconclusive: 32.6 µM [rising, single point] | –
COc1ccc(NCc2ccsc2)cc1 | inactive | –

SMILES | Potency | activity change, negative = cytotoxicity
CCOC(=O)CCn1nc(-c2ccc(C)cc2)c2ccccc2c1=O | inconclusive: 4.11 µM [cytotoxic, full curve, poor fit] and inconclusive: 16.4 µM [cytotoxic, single point] | –
O=C(CSc1nc2ccccc2s1)NC1CCCc2ccccc21 (centres undefined) | inconclusive: 14.6 µM [cytotoxic, single point] | –
Cc1ccc(C)c(Cn2c(=O)n(Cc3ccccc3)c(=O)c3c(C)c(C)sc32)c1 | inactive | –
O=C1CCN(Cc2ccccc2)CCN1[C@H](CSc1ccccc1)Cc1ccccc1 | active: 14.6 µM | –
CS(=O)(=O)N(CC(=O)N1CCN(c2ccccc2)CC1)c1ccccc1Cl | inconclusive: 11.6 µM [cytotoxic, partial curve] | –
C=CCC[C@@H](Cc1ccc(F)cc1)C(=O)OC[C@H](Cc1c[nH]c2ccccc12)NC(=O)[C@H](CC=C)CC(=O)NCCO | inactive | –
CSc1ccc(S(=O)(=O)NCC(=O)OCC(=O)N2CCCCC2C)cc1[N+](=O)[O-] (centres undefined) | inconclusive: 29.1 µM [rising, single point] | –
COc1ccc2cc(C(=O)N(C)CC(=O)Nc3ccccc3Br)ccc2c1 | inconclusive: 18.4 µM [cytotoxic, single point] | –
O=C(CN1C(=O)c2cccnc2Oc2ccc(Cl)cc21)N1CCCC1 | – | inconclusive: -18%
CCc1ccccc1NC(=O)Cn1nnc(C(=O)OC)c1C(=O)OC | inactive | –
O=[N+]([O-])c1ccc(Oc2cccc3cccnc23)c([N+](=O)[O-])c1 | active: 20.6 µM | –
CCOc1ncccc1C(=O)NCc1cccc(OC)c1 | inconclusive: 16.4 µM [cytotoxic, single point] | –
CCOc1ccc(NC(=O)c2sc3nc(C)nc(N4CCOCC4)c3c2C)cc1 | – | inconclusive: -41.6% [cytotoxic]
O=C(Nc1ccccc1)c1ccccc1OS(=O)(=O)c1ccccc1 | inconclusive: 29.1 µM [cytotoxic, single point] | –
COc1cc(NC(=S)NC(=O)c2ccc(C(C)(C)C)cc2)ccc1NC(=O)c1cccs1 | inactive | –
Cc1ccc(NC(=O)C(C)c2ccc([N+](=O)[O-])cc2)cc1Cl (centres undefined) | inconclusive: 23.1 µM [cytotoxic, single point] | –
CN(C)c1ccc(/C=C/C=C2/C=Cc3ccccc32)cc1 | inactive | –
CCOc1ccc(OCC)c(-c2c(=O)n(OCc3ccccc3C(=O)OC)c3ccccc3[n+]2[O-])c1 | active: 3.66 µM | –
COc1ccc(C2Nc3ccccc3C(=O)N2c2ccc(C)cc2)cc1Cn1nnc2ccccc21 (centres undefined) | inconclusive: 0.231 µM [cytotoxic, full curve] | –
N#Cc1ccc(/C=C/C(=O)c2ccco2)cc1 | inactive | –
COc1ccccc1CCNC(=O)c1ccc2c(c1)c(C)c(C)n2C | inactive | –
COc1ccc(CN2C(=O)CSC2c2ccccn2)cc1 (centres undefined) | inactive | –
O=C(O)c1c(-c2ccccc2)oc2ccc(O)cc12 | inactive | –
